Measurements from patent US9784752B2, “Venlafaxine assay” (Randox Laboratories, Limited, priority 2012, dated 2017).

System: polyclonal antibody raised to Immunogen II
Assay: Competitive biochip immunoassay (Evidence Investigator) with Hapten-1 HRP detecting agent
Assay type: binding, sheep
Settings: concentration causing 50% displacement of signal; competition with Hapten-1 HRP for immobilised polyclonal antibody; 30 minutes at 30° C.
Experimental: A semi-automated Evidence Investigator analyser (Randox Laboratories Ltd., Crumlin, UK) was used as the platform for a biochip assay for the detection of venlafaxine and O-desmethylvenlafaxine. Immunogen II was administered to adult sheep on a monthly basis to provide target-specific polyclonal antisera. IgG was extracted from the antisera, and the purified antibody was immobilised on a biochip (9 mm×9 mm). The assay is based on competition for binding sites of a polyclonal antibody between Hapten-1HRP detecting agent (Example 10) and venlafaxine and O-desmethylvenlafaxine and potential cross-reactants. The antibody was immobilised and stabilised onto the biochip surface as previously described (Fitzgerald et al., 2005). Assay diluent (155 μL), calibrator/venlafaxine and O-desmethylvenlafaxine or potential cross-reactant (25 μL) followed by Hapten-1 HRP detecting agent (120 μL) were added to the appropriate biochip. The biochips were then incubated for 30 minutes at 30° C. on a thermoshaker set at 370 rpm. The biochips were then subjected to 2 quick wash cycles using the wash buffer provided, followed by 4×2 minute wash cycles. 250 μL of signal (1:1 luminol+peroxide, v/v) was then added to each biochip, and after 2 minutes the biochip carrier was imaged in the Evidence Investigator analyser. […]

COc1cccc(C2(O)CCCCC2CN(C)C)c1 (stereo not shown) [Tramadol]
IC50: >0.32 µg/mL
